# Results from the supplement of paper PMC4604168 (melanoma cell lines).
# This is one part of the list. Single values are uncertain, as repeats are few or missing.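 Cells were imaged in 1,536-well plates, and nuclei stained with an antibody against cleaved PARP were counted against all DNA-stained nuclei to give the apoptosis fraction. Screening doses were chosen to leave most cells alive, and resting and induced cleaved-PARP levels differ strongly between cell lines.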
# Assays:
# Experiment in all cases: cleaved PARP positive nuclei fraction relative to DMSO control; melanoma cells; higher = more apoptosis
# Details in all cases: library dose: low library concentration; 72 h
# WM115 = tested on: WM115
# WM1716 = tested on: WM1716
# WM1745 = tested on: WM1745
# WM3526 = tested on: WM3526
# WM3619 = tested on: WM3619
# WM451Lu = tested on: WM451Lu
Structure (SMILES),cleaved PARP positive nuclei fraction (WM115) [%],cleaved PARP positive nuclei fraction (WM1716) [%],cleaved PARP positive nuclei fraction (WM1745) [%],cleaved PARP positive nuclei fraction (WM3526) [%],cleaved PARP positive nuclei fraction (WM3619) [%],cleaved PARP positive nuclei fraction (WM451Lu) [%]
"COc1ccc(C2=N[C@@H](c3ccc(Cl)cc3)[C@@H](c3ccc(Cl)cc3)N2C(=O)N2CCNC(=O)C2)c(OC(C)C)c1 [Nutlin-3] + O=C(O)c1ccc2c(c1)nc(Nc1cccc(Cl)c1)c1ccncc12 [CX4945] (first compound 0.1 µM, partner dose 0.4 µM)",81.7,44.9,110,48,90.7,89.1
"CS(=O)(=O)c1ccc(C(=O)Nc2ccc(Cl)c(-c3ccccn3)c2)c(Cl)c1 [vismodegib] + COC(=O)c1sccc1S(=O)(=O)Nc1ccc(Nc2ccccc2)cc1OC [GSK0660] (first compound 1 µM, partner dose 1 µM)",163,50.2,89,69.6,115,66.4
"CS(=O)(=O)c1ccc(C(=O)Nc2ccc(Cl)c(-c3ccccn3)c2)c(Cl)c1 [vismodegib] + Oc1nc(-c2ccc(C(F)(F)F)cc2)nc2c1CSCC2 [XAV939] (first compound 1 µM, partner dose 2 µM)",78.7,172,106,131,97.6,141
"CC1(C)CCC(c2ccc(Cl)cc2)=C(CN2CCN(c3ccc(C(=O)NS(=O)(=O)c4ccc(N[C@H](CCN5CCOCC5)CSc5ccccc5)c(S(=O)(=O)C(F)(F)F)c4)cc3)CC2)C1 + C[C@]1(c2nc3c(C(N)=O)cccc3[nH]2)CCCN1 [Veliparib] (first compound 0.4 µM, partner dose 1.4 µM)",773,133,1300,54.2,139,55.1
"CC1(C)CCC(c2ccc(Cl)cc2)=C(CN2CCN(c3ccc(C(=O)NS(=O)(=O)c4ccc(N[C@H](CCN5CCOCC5)CSc5ccccc5)c(S(=O)(=O)C(F)(F)F)c4)cc3)CC2)C1 + CC(C)(C)c1cnc(CSc2cnc(NC(=O)C3CCNCC3)s2)o1 [SNS-032] (first compound 0.4 µM, partner dose 0.01 µM)",253,475,553,77.5,120,23.1
"Cn1sc(=O)n(Cc2ccccc2)c1=O + COc1ccc(COc2ccc(Cc3cnc(N)nc3N)cc2OC)cc1 [GW2580] (first compound 0.4 µM, partner dose 1 µM)",124,99.2,94.6,131,82,98.8
"Cn1sc(=O)n(Cc2ccccc2)c1=O + O=C(O)C(=O)Nc1sc2c(c1C(=O)O)CCNC2 [TCS401] (first compound 0.4 µM, partner dose 1.66667 µM)",78.9,44.6,91.3,140,192,38.2
"CCCCCCCCc1ccc(CCC(N)(CO)CO)cc1 [fingolimod] + C=C(c1ccc(C(=O)O)cc1)c1cc2c(cc1C)C(C)(C)CCC2(C)C [Bexarotene] (first compound 2 µM, partner dose 2 µM)",54.6,119,99.2,271,104,91.5
"C[C@@H](N)c1ccc(C(=O)Nc2ccnc3[nH]ccc23)cc1 + Oc1nc(-c2ccc(C(F)(F)F)cc2)nc2c1CSCC2 [XAV939] (first compound 0.4 µM, partner dose 2 µM)",38.4,97.2,172,36,69.2,97.8
"CS(=O)(=O)c1ccc(C(=O)Nc2ccc(Cl)c(-c3ccccn3)c2)c(Cl)c1 [vismodegib] + COc1cc(N2CCC(N3CCN(C)CC3)CC2)ccc1Nc1ncc(Cl)c(Nc2ccccc2S(=O)(=O)C(C)C)n1 [NVP-TAE684] (first compound 1 µM, partner dose 0.08 µM)",332,377,104,69.5,93.9,160
"CC(=O)O[C@@]12CO[C@@H]1C[C@H](O)[C@@]1(C)C(=O)[C@H](O)C3=C(C)[C@@H](OC(=O)[C@H](O)[C@@H](NC(=O)OC(C)(C)C)c4ccccc4)C[C@@](O)([C@@H](OC(=O)c4ccccc4)[C@H]21)C3(C)C [Docetaxel] + CS(=O)(=O)CCNCc1ccc(-c2ccc3ncnc(Nc4ccc(OCc5cccc(F)c5)c(Cl)c4)c3c2)o1 [lapatinib] (first compound 0.0001 µM, partner dose 0.8 µM)",363,74.2,202,151,168,93.7
"Cn1sc(=O)n(Cc2ccccc2)c1=O + O=C(CCCCCCC(=O)Nc1ccccc1)NO [vorinostat] (first compound 0.4 µM, partner dose 0.08 µM)",60.3,73.3,98.1,68.4,114,422
